This note sets out measurements from publication PMC12691694, “Bacillus velezensis LoaP promotes antitermination by antagonizing NusA”.

Construct, isoform or probe ends are uncertain for at least one entry. The comparison behind a weaker result is the experiment's own reference, which may not be listed here. At least one verdict was read from the data and is not stated in words by the source. Tags and fusion partners may be left off the protein sequences shown.

In one data set the target is T1, LoaP (Bacillus velezensis) (UniProt A7Z6E4).
T1 sequence (looked up, limits assumed): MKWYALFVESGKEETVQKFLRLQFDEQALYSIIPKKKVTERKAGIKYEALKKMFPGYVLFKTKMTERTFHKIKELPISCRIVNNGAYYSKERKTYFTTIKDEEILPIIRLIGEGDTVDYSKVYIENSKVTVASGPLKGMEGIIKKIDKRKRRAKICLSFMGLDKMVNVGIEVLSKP
Nature of the data set: DRaCALA filter binding. The conditions noted are these: 25 ug/mL yeast RNA, 1 mM Mg2+; 50 mM NaH2PO4 pH 7.2, 100 mM NaCl, 0.1 mM EDTA, 1 mM MgCl2, 100 ug/mL BSA, 25 ug/mL total yeast RNA, 2.5 nM labeled RNA, 45 min, room temperature; recombinant protein; protein details: N-terminal His10-SUMO removed by bdSENP1; label: 5'-32P.
Turning to “GGAAACACAAUGCGUUUGCGAUUUUUAAACCUGUGCUGAAUCGCAAACGCGUUUGUG [dfnA terminator]”, the binding result is reported as “binds more weakly”. As to “GGAAAGGCAAUCGCUGCUUCGGCACGUUGCC [dfn hairpin (Amr261)]”, the binding result is listed as “binds”.

Staying with this data set, now noted: 50 mM NaH2PO4 pH 7.2, 100 mM NaCl, 0.1 mM EDTA, 1 mM MgCl2, 100 ug/mL BSA, 25 ug/mL total yeast RNA, 2.5 nM labeled RNA, 45 min, room temperature; recombinant protein; protein details: N-terminal His10-SUMO removed by bdSENP1; label: 5'-32P; single-stranded DNA.
For AATAGCAACT [dfn segment 1 NT (MDJ652)], the binding result was “binds more weakly”. The same measure, in the same setting: the entry for AGTTGCTATT [dfn segment 1 T (MDJ657)] is “binds more weakly”; for ATTTAATAAA [dfn segment 3 T (MDJ659)] it is “binds more weakly”. Consider ATTTGTTAAA [dfn segment 2 NT (MDJ653)], for which the binding result is listed as “binds more weakly”. Still for that read-out and setting: the result for CACCTATTAA [dfn segment 5 NT (MDJ656)] reads “binds more weakly”; that for CTTTACATCA [dfn segment 4 T (MDJ660)], “binds more weakly”; that for TGATGTAAAG [dfn segment 4 NT (MDJ655)], “binds more weakly”. Still for that read-out and setting: the entry for TTAATAGGTG [dfn segment 5 T (MDJ661)] is “binds more weakly”. Consider TTTAACAAAT [dfn segment 2 T (MDJ658)], for which the binding result was “binds more weakly”. Turning to TTTATTAAAT [dfn segment 3 NT (MDJ654)], the binding result is “binds more weakly”.
